This passage reports z-score results from PubChem BioAssay AID1347423 (Functional Genomics Laboratory (NCATS/FGL), 2020).

Hit rate of the full screen: of about 52,000 sequences, about 210 (0.4%) were called active.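 Rule for the calls: active = gene whose silencing raises cell survival under the drug, median off-target-corrected z-score across its silencing RNAs 2 or more; inactive = the rest.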 Some of the results follow.

A short description of this assay: Resistance to Poly (ADP-Ribose) Polymerase inhibitor: Gene Identification via Genome-wide siRNA Screen. The settings on record: mouse BRCA2 R2336H ES cells, olaparib, CellTiter-Glo viability; active compounds read high. The procedure, abridged: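 Genome-wide siRNA screen (3 siRNAs/gene, 20 nM) in mouse ES cells carrying hypomorphic BRCA2 R2336H; olaparib 500 nM added 48 h post-transfection, CellTiter-Glo viability 72 h later. Normalized to plate-median negative control; MAD z-scores, gene median, seed-adjusted.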
(ATP-based viability assays read luminescence as a measure of living cells.)
For “GGAUGAACAAAAUAAGACUTT against C630025C03”, the z-score is inactive: -1.07. The same measure for GGGUUUGAAAAUUGUACAATT against Sypl: inactive: 1.59. For the sequence GGUAACAUCAACACCAAACTT against Nit1, the z-score was inactive: -0.473. The same measure for CCGAGAGCCAAGAUGCCAATT against Armc7: inactive: -0.517.

Consider GGACGAACAAUAGAAGAACTT against Agtpbp1, for which the z-score was inactive: -0.12. With GGAACAAAGAAGUCAAAGATT against Olfr16 the figure was inactive: 0.219; with ACCUGGGCCUAUGCCUUACTT against Ascl2, inactive: -1.78. GGGAAGUUUCGCUACCUUGTT against Trik: the z-score is inactive: -0.388. With GGCAUUUUAUAAGUUUGAGTT against Mitf the figure was inactive: 1.19. With “GCCUGGAUUUAUCGAAUUATT against 2610524H06Rik” the figure was inactive: 0.937. The same measure for GGCUGGUUUAUUUGUGGACTT against Tmem2: inactive: -0.0273; for CCCUUAUAUUUCUAACAGUTT against Chchd2: inactive: 1.22; for GCCUUGGUACACUAAACUCTT against Rhcg: inactive: -0.685. In the case of GGCACAGUAUGUACUAACUTT against Gpld1, the z-score is inactive: -0.58. The same measure for “GCUACAGUACCCAUACUAGTT against 8030463A06Rik”: inactive: -2.02. With CGCUUACAAGCUAACCUCATT against Mrgprd the figure was inactive: -0.608. Take GGUGAAGGCCAUCAAUUUCTT against Gabbr1: the z-score was inactive: -1.82.

Regarding “GGUCAUAAGUUUCUCAUCUTT against 2610020H15Rik”, the z-score is inactive: 1.83.

For the sequence GGUGAUCAAUCCUCUAAUATT against Cri2, the z-score is inactive: 3.03.

On to GCGAUUAAGUCUGAAUUGUTT against C1qr1, for which the z-score is inactive: 1.68.

In the case of GGUGCACUCUGUCAGUUCATT against Col27a1, the z-score was inactive: -1.07. With GGAUCCGAACAUCCUCAGGTT against Hr the figure was inactive: 0.609; with GCGGAAACUCUCGAAAGUGTT against Dhx34, inactive: 0.369. With GGAGAAGAGUUUCCUCUGATT against Rtn4ip1 the figure was inactive: -1.6; with “GGUAUGGCAUUUCAAACCUTT against 5230400G24Rik”, inactive: -0.427. With GAAUGAAAGGUACGAAAAATT against Ang4 the figure was inactive: -0.00494. For GGUUCUGGAAGAAGAAAAGTT against AF322649, the z-score was inactive: -0.855.

On to GCUGCUUGUCCUAAGUUGATT against Aqp8, for which the z-score was inactive: 0.391. With GGAACUGCUCAAGAUCAAGTT against Plagl2 the figure was inactive: -1.34; with GGAUCAUUGAUGUCAUCUATT against Abcb10, inactive: -2.66; with CGGUCUUUAUACACAUAUATT against Wnt7a, inactive: -1.06. The same measure for GCUACUUCGGGAAUUUUACTT against ttc21a: inactive: 1.05; for GGCUUCCAGUACCAUUAGGTT against Ucp1: inactive: -0.973.

In the case of GGUUGGCAAGUUCCUGUAUTT against Cdk3, the z-score was inactive: 1.64. The same measure for GGAAUCAAUAAGAAUGACGTT against Tln2: inactive: 0.731; for GCCCUUGCACUAUUUUUCCTT against Olfr1218: inactive: 0.236; for GGCUGUAUGUAGUGAAUAUTT against Nck2: inactive: -0.875. With GGCUGGAUCCUCAUUGACCTT against Kctd10 the figure was inactive: -0.207; with “GGAUUGCUGUAAAAUACAATT against D11Ertd497e”, inactive: -0.945. With GGAACAAGGUCCUAAACCATT against Gtf2f1 the figure was inactive: -0.0997; with GGAACAGAAAGCAGUGUACTT against Dnajc9, inactive: -1.08. Regarding GGGCUGGAUUUUCUCCAGATT against Crsp7, the z-score is inactive: -0.334. With GUUGGCAUAUUUUAUGGCATT against Olfr1033 the figure was inactive: 0.175.

Regarding “GCACAGCUACCAUUCACAATT against 4432416J03Rik”, the z-score is inactive: 1.2. With GGUGUUAAGACUAAAACUUTT against Plxdc2 the figure was inactive: 0.0452; with GCUUACCUAGUGCUCUUAATT against Kctd15, inactive: -1.3. In the case of GAUACAGAUCGCCAAGAGCTT against H2-D4, the z-score was inactive: -0.422.

Consider GCUAGACAUCGGUUCUUAUTT against Eomes, for which the z-score is inactive: -0.909. The same measure for GCUGGAUAUGGUCAAGGCGTT against Ndufa5: inactive: 0.854; for GCUUACCUUGUUCUUAAAGTT against AI325464: inactive: 0.388; for GGAUAUUCUUCCUCUCUUUTT against MGC91106: inactive: -1.43. The same measure for GCUUCUGACAUAUUGUGCATT against Phxr2: inactive: 0.651.

On to GGCCUUCAUGGAUUAUACCTT against Serpinb9, for which the z-score is inactive: 0.161. With “GCUCUCGGUUCCACUUUCATT against 4932438H23Rik”, the z-score is inactive: -2.27. With CCUGCUUAAAGAUUACCCATT against Flt3l the figure was inactive: -2.68; with GGGAAGAGCAUGUUUGCUGTT against Surf4, inactive: 0.587; with CCUAUGUGUACUUCAUCCUTT against Elovl1, inactive: 1.45. With CCAAACCAGUGGAGUCCAUTT against BC061928 the figure was inactive: -0.00878; with CCAAUUAUUAUCCAAGGGCTT against Slc16a6, inactive: 0.355; with “GGCCUAUGCGGAGGAGUUATT against 2700067E09Rik”, inactive: 1.78. On to “CCAGAGAGGUUUAUAAGUCTT against 2700038I16Rik”, for which the z-score is inactive: -0.467. With GGAAUGCCUGCAUAAGUUUTT against Th1l the figure was inactive: -1.71; with GGGAAGACAAGAACAACUUTT against Pitrm1, inactive: -0.362.

With GGUGGUCACCAAGAAGUUUTT against Prps2, the z-score was inactive: 0.754. The same measure for GGAUCAGACACCUGUUUUATT against Pkhd1: inactive: 1.16; for “GAAGAAACUCAUGACAAAUTT against 4930503B16Rik”: inactive: 0.377. As for “GCAGAUUCGGAAGUAAACATT against D130054N24Rik”, the z-score was inactive: 0.5. Take CCUCACUCCUUUCUGUAAATT against BC021785: the z-score is inactive: -0.743. The same measure for GGAAAUCUGCUUACUUUUGTT against Ppm1l: inactive: 0.67; for “CCAGAUGGGAUACCUCUACTT against 1810015P03Rik”: inactive: 0.193; for GGAGGAAGCUGAUGAGAAUTT against Stx4a: inactive: -0.721. With GCCAGAGCUAGUUGAAUCCTT against Rce1 the figure was inactive: -0.0634; with “GGAAAGUUAUACUUUAGGGTT against D430004I08Rik”, inactive: 0.483; with CCCUUGAUUACACCACAGUTT against Cfc1, inactive: -1.8. The same measure for GGCCACCAGAAUUGUUCACTT against C6.1AL: inactive: -0.622; for GGGACAGGAACAAACAAGCTT against Polq: inactive: 1.02; for “CGACACUAGUGAUCACUCUTT against 6330530A05Rik”: inactive: 0.295. CCACGUAUUGUUAGUAGAATT against Ei24: the z-score was inactive: 0.629. With GGAUUUGUAAGACUAAUCUTT against Xdh the figure was inactive: 0.928. The same measure for GCUAACGUACCUGUAACUUTT against Cnp1: inactive: 0.939.

On to GGUGUGGACUAUGAUACCATT against Anxa9, for which the z-score is inactive: 0.693. As to GGAUCAAAGGAAGAAGGGCTT against BC055367, the z-score is inactive: 0.0172. The same measure for CCACAUCUUACUACUGCAUTT against Th: inactive: 0.47; for CCGAAAACUUAUCUAGAAATT against BC023105: inactive: -1.43. The same measure for GCAUGAUGGGUGGCAGAAUTT against Olfr978: inactive: -2.04; for GGUAUGAUGUUUGUUUUGCTT against Zfp537: inactive: 0.494; for CCAUAUGGUAACCAAACCGTT against Ldb1: inactive: -0.337. With GGAAAAGAGACUGAAGAAATT against Lhx3 the figure was inactive: -0.169; with GGAGCCGAGUACAACAUCATT against Galgt1, inactive: 0.763. Regarding GGAAAGAGAGCUGAGCUUATT against Pla2g2a, the z-score was inactive: -0.374.

“GGGUUUGCUCAUAAAAUAATT against 4933400A11Rik”: the z-score was inactive: -1.79.

For the sequence GCAGUAACUGUGUCAAAAUTT against Zan, the z-score was inactive: 3.84. With CGUGGAGCUACCAUAUAGGTT against Mobkl2b the figure was inactive: 3.35; with “GCACCCUAAUGUGAUCGCATT against 2700084L06Rik”, inactive: 0.533; with GUGAUGGUUGAUGACCCACTT against LOC56628, inactive: -0.264. The same measure for GGACCAUGAGGGAAUACAGTT against Bdkrb2: inactive: -2.46. With GCUACGGCGUGGUUUAUGATT against Stk35, the z-score was inactive: 1.76. The same measure for CCCAAUAUGUUAGACCCUGTT against Slc16a8: inactive: 0.52; for GGCAUUCAUCUAGUCCUGCTT against Bst1: inactive: 0.355; for “CGAUGAGCUAAGAGAGUCCTT against 2210404G23Rik”: inactive: -0.0999. The same measure for “GGAAGAUCUCAGUGAGCAUTT against 2310032D16Rik”: inactive: 1.26; for GGUGUGUUUUCAUGUUUUUTT against Rel: inactive: 1.53.

GGUGAAAUUUUAUGAAGAGTT against Adrbk2: the z-score was inactive: -1.54. With GCUGCAUGCGUAAAUAGAATT against Slc22a19 the figure was inactive: -1.34.
